Reference: publication PMC9913340
These are yes or no findings as the source states them, for the method shown. Binding seen in cells or lysates may run through a third protein. Some binding calls cover weakened binding; strength is not graded here.

Biological target: T1, Checkpoint kinase 1 (CHK1) (human (endogenous in Huh-7)) (UniProt O14757)
T1 sequence: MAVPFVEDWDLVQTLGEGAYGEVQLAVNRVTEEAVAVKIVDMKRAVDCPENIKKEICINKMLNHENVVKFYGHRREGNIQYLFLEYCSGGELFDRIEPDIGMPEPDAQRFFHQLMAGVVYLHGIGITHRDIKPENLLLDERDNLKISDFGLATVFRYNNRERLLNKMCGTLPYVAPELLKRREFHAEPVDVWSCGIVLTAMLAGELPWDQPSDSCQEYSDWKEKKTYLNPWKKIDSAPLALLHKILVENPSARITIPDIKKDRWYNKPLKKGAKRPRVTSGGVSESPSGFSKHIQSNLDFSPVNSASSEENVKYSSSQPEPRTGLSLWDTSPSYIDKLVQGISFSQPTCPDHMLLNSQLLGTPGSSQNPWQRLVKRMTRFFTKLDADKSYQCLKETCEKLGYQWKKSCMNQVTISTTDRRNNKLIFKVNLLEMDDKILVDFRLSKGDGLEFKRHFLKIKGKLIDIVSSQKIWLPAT
Assay: co-IP; Lysate of Huh-7 cells treated with cisplatin 10 µM for 24 h; anti-CHK1 or anti-IRF1 antibody on Protein A+G magnetic beads, overnight at 4 °C; western blot for the other protein; control IgG

B1: Interferon regulatory factor 1 (IRF1) (protein, UniProt P10914 1-325)
chain: MPITRMRMRPWLEMQINSNQIPGLIWINKEEMIFQIPWKHAAKHGWDINKDACLFRSWAIHTGRYKAGEKEPDPKTWKANFRCAMNSLPDIEEVKDQSRNKGSSAVRVYRMLPPLTKNQRKERKSKSSRDAKSKAKRKSCGDSSPDTFSDGLSSSTLPDDHSSYTVPGYMQDLEVEQALTPALSPCAVSSTLPDWHIPVEVVPDSTSDLYNFQVSPMPSTSEATTDEDEEGKLPEDIMKLLEQSEWQPTNVDGKGYLLNEPGVQPTSVYGDFSCKEEPEIDSPGGDIGLSLQRVFTDLKNMDATWLDSLLTPVRLPSIQAIPCAP
Question: How did the binding turn out when B1 was run?
Answer: binds
